From US7265096B2 (XenoPort, Inc., priority 2002, dated 2007)
Some results were stated once for a whole list of compounds, not compound by compound.

Test system: CNT1 and/or CNT3
Experiment: Electrogenic transport currents in Xenopus oocytes expressing CNT1 or CNT3
Format: cell-based, human
Settings: tested at 1 mM on oocytes expressing either CNT1 or CNT3; significantly above background

## O=C(Nc1ccn([C@@H]2O[C@H](CO)[C@@H](O)C2(F)F)c(=O)n1)Oc1ccccc1 [Compound 34, β-1-(4-Phenyloxycarbonylamino-2-oxo-1H-pyrimidin-1-yl)-2-deoxy-2,2-difluororibose]
  CNT1 and/or CNT3-specific current, % of Imax for uridine: at least 5 % of Imax for uridine
